Measurements reported in PubChem BioAssay AID652243 (Drosophila RNAi Screening Center, 2013)

- Assay: 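Knock-downs that decrease or increase androgen receptor reporter signal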 (primary screen)
- System: Drosophila S2R+ cells
- Reagents: long dsRNA against Drosophila genes
- Timing: 72 h (48 h, then 24 h hormone)
- Challenge: synthetic androgen R1881 at 10 nM for 24 h
- Measurement: 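Firefly light from an androgen-responsive reporter and Renilla control light per well, raw and unnormalised, for each of two replicates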
- Scale: firefly reporter light: higher = more light from androgen-responsive reporter; Renilla control light: higher = more constitutive control signal (cell number, transfection)
- Rule for the call: 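Across duplicate plates, a knock-down whose log firefly/Renilla ratio shifted a set fold down or up from the GFP/LacZ control mean was a hit; the downward cut appears as both 1.5 and 3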
- Calls: active = hit: reporter lowered or raised; inactive = no hit
In all, the deposit lists about 24,000 reagents; shown is a random part of those with a known target gene and a result. In the full data, 246 (1%) got an active call. 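Plates not normalised; calls are printed but the firefly/Renilla ratio behind them is not deposited; fold cut for lowering reported inconsistently.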 Raw values are not corrected between plates. Names joined by + are all predicted targets of the reagent. The record does not give: the amount of reagent.

| Gene | PubChem SID | firefly reporter light, replicate 1 | firefly reporter light, replicate 2 | Renilla control light, replicate 1 | Renilla control light, replicate 2 | Outcome |
| --- | --- | --- | --- | --- | --- | --- |
| Naus (GeneID 37076) | SID104185803 | 6.14e5 | 7.19e5 | 1.39e6 | 1.08e6 | inactive |
| Naus (GeneID 37076) | SID104186261 | 18915 | 21214 | 7.81e5 | 7.81e5 | active |
| Naus (GeneID 37076) | SID104202819 | 8.52e5 | 1.07e6 | 1.05e6 | 1.16e6 | inactive |
| 5PtaseI (GeneID 326119) | SID104196061 | 89876 | 62680 | 6.68e5 | 6.30e5 | inactive |
| 5PtaseI (GeneID 326119) | SID104201660 | 8.54e5 | 1.14e6 | 1.74e6 | 1.75e6 | inactive |
| 5PtaseI (GeneID 326119) | SID104207317 | 4.63e5 | 5.22e5 | 1.46e6 | 1.62e6 | inactive |
| CG1494 (GeneID 33102) | SID104200301 | 1.84e5 | 1.67e5 | 6.05e5 | 4.51e5 | inactive |
| GstE4 (GeneID 37109) | SID104186466 | 68555 | 54728 | 1.00e6 | 1.00e6 | inactive |
| GstE4 (GeneID 37109) | SID104203078 | 6.00e5 | 2.86e5 | 4.50e5 | 4.40e5 | inactive |
| EbpII (GeneID 326108) | SID104184429 | 1.03e6 | 5.51e5 | 2.15e6 | 1.55e6 | inactive |
| EbpII (GeneID 326108) | SID104201938 | 4.90e5 | 6.64e5 | 1.51e6 | 2.24e6 | inactive |
| EbpII (GeneID 326108) | SID104208101 | 3.39e5 | 5.88e5 | 1.17e6 | 1.17e6 | inactive |
| Ssrp (GeneID 37767) | SID104184450 | 3.68e5 | 3.32e5 | 9.17e5 | 1.04e6 | inactive |
| Ssrp (GeneID 37767) | SID104208503 | 4.08e5 | 3.22e5 | 1.32e6 | 1.08e6 | inactive |
| Ssrp (GeneID 37767) | SID104216535 | 4.64e5 | 3.17e5 | 1.42e6 | 1.27e6 | inactive |
| CG31220 (GeneID 326126) | SID104201774 | 5.77e5 | 7.17e5 | 2.37e6 | 2.15e6 | inactive |
| CG31220 (GeneID 326126) | SID104203227 | 5.23e5 | 7.23e5 | 5.53e5 | 6.54e5 | inactive |
| nwk (GeneID 39052) | SID104190231 | 1.06e6 | 8.38e5 | 1.72e6 | 1.27e6 | inactive |
| nwk (GeneID 39052) | SID104190234 | 1.47e5 | 75261 | 2.32e6 | 9.66e5 | inactive |
| nwk (GeneID 39052) | SID104203197 | 6.62e5 | 6.75e5 | 6.49e5 | 8.70e5 | inactive |
| Prm (GeneID 39002) | SID104188733 | 1.19e5 | 1.28e5 | 3.46e5 | 3.95e5 | inactive |
| Prm (GeneID 39002) | SID104188734 | 1.65e5 | 1.09e5 | 4.03e5 | 4.10e5 | inactive |
| Prm (GeneID 39002) | SID104191047 | 5.60e5 | 5.64e5 | 1.08e6 | 1.50e6 | inactive |
| Prm (GeneID 39002) | SID104205473 | 4.76e5 | 3.96e5 | 6.24e5 | 4.25e5 | inactive |
| CG14022 (GeneID 33763) | SID104182144 | 1.15e5 | 1.17e5 | 1.41e6 | 1.47e6 | inactive |
| CG14022 (GeneID 33763) | SID104205944 | 2.98e5 | 2.79e5 | 7.85e5 | 6.48e5 | inactive |
| Ugt35E2 (GeneID 53506) | SID104195875 | 1.61e5 | 1.48e5 | 1.79e6 | 2.02e6 | inactive |
| Ugt35E2 (GeneID 53506) | SID104205900 | 3.43e5 | 3.70e5 | 8.47e5 | 8.33e5 | inactive |
| Sytbeta (GeneID 39630) | SID104189801 | 1.56e5 | 2.21e5 | 2.95e6 | 2.46e6 | inactive |
| Sytbeta (GeneID 39630) | SID104190143 | 1.79e5 | 1.43e5 | 1.98e6 | 1.78e6 | inactive |
| whe (GeneID 33121) | SID104200329 | 2.50e5 | 2.83e5 | 5.17e5 | 3.73e5 | inactive |
| whe (GeneID 33121) | SID104204780 | 2.63e5 | 2.87e5 | 7.77e5 | 8.40e5 | inactive |
| CG6125 (GeneID 41882) | SID104195762 | 86789 | 1.35e5 | 1.85e6 | 2.25e6 | inactive |
| Dp (GeneID 36461) | SID104187194 | 4.82e5 | 4.97e5 | 2.17e6 | 2.34e6 | active |
| lncRNA:CR43493 + l(1)G0196 | SID104200420 | 1.21e5 | 96921 | 1.01e6 | 8.69e5 | inactive |
| CG30389 (GeneID 37410) | SID104183869 | 1.22e6 | 9.35e5 | 2.82e6 | 2.50e6 | inactive |
| CG30389 (GeneID 37410) | SID104184244 | 1.89e5 | 2.77e5 | 1.71e6 | 1.80e6 | inactive |
| CG30389 (GeneID 37410) | SID104204914 | 1.40e5 | 3.93e5 | 1.02e5 | 5.24e5 | inactive |
| Glys (GeneID 41823) | SID104195922 | 46198 | 65537 | 3.65e5 | 4.08e5 | inactive |
| mRpL30 (GeneID 31398) | SID104198208 | 3.64e5 | 4.54e5 | 3.45e6 | 4.10e6 | inactive |
| mRpL30 (GeneID 31398) | SID104205167 | 3.55e5 | 4.23e5 | 6.43e5 | 6.08e5 | inactive |
| CG9672 (GeneID 32651) | SID104199993 | 43221 | 64506 | 4.14e5 | 6.75e5 | inactive |
| CG30095 (GeneID 246453) | SID104186967 | 74593 | 1.29e5 | 1.64e6 | 1.64e6 | inactive |
| BBS1 (GeneID 38780) | SID104189988 | 4.48e5 | 5.97e5 | 3.28e6 | 3.85e6 | inactive |
| CG14642 (GeneID 40532) | SID104192020 | 38308 | 54007 | 4.10e5 | 4.78e5 | inactive |
| CG32017 (GeneID 317823) | SID104196975 | 6.65e5 | 6.78e5 | 1.20e6 | 7.84e5 | inactive |
| CG14275 (GeneID 34144) | SID104182171 | 1.23e5 | 2.13e5 | 1.61e6 | 1.67e6 | inactive |
| CG14275 (GeneID 34144) | SID104206132 | 2.66e5 | 1.64e5 | 5.58e5 | 4.09e5 | inactive |
| Fatp2 (GeneID 37657) | SID104183763 | 7.14e5 | 7.18e5 | 2.19e6 | 1.92e6 | inactive |
| Fatp2 (GeneID 37657) | SID104183970 | 3.76e5 | 4.19e5 | 2.67e6 | 1.89e6 | inactive |
| Fatp2 (GeneID 37657) | SID104184122 | 3.15e5 | 3.29e5 | 2.20e6 | 1.24e6 | inactive |
| CG14453 (GeneID 40484) | SID104191502 | 6.93e5 | 6.98e5 | 1.84e6 | 2.27e6 | inactive |
| CG14453 (GeneID 40484) | SID104202882 | 7.78e5 | 7.72e5 | 9.91e5 | 8.40e5 | inactive |
| CG8837 (GeneID 33545) | SID104180503 | 1.09e5 | 1.19e5 | 7.76e5 | 8.07e5 | inactive |
| CG8837 (GeneID 33545) | SID104207984 | 3.52e5 | 4.04e5 | 5.63e5 | 5.63e5 | inactive |
| PIP82 (GeneID 31791) | SID104198486 | 1.85e5 | 2.00e5 | 1.99e6 | 1.82e6 | inactive |
| PIP82 (GeneID 31791) | SID104203881 | 4.86e5 | 3.62e5 | 4.39e5 | 4.64e5 | inactive |
| CG18480 (GeneID 34920) | SID104181749 | 9.47e5 | 4.17e5 | 1.41e6 | 1.02e6 | inactive |
| CG18480 (GeneID 34920) | SID104203499 | 8.97e5 | 9.08e5 | 9.34e5 | 9.29e5 | inactive |

Reformatted: entries from further up
CG14453 (GeneID 40484) [SID104191502]: firefly reporter light, replicate 1 = 6.93e5; firefly reporter light, replicate 2 = 6.98e5; Renilla control light, replicate 1 = 1.84e6; Renilla control light, replicate 2 = 2.27e6; Outcome = inactive
CG14453 (GeneID 40484) [SID104202882]: firefly reporter light, replicate 1 = 7.78e5; firefly reporter light, replicate 2 = 7.72e5; Renilla control light, replicate 1 = 9.91e5; Renilla control light, replicate 2 = 8.40e5; Outcome = inactive
CG8837 (GeneID 33545) [SID104180503]: firefly reporter light, replicate 1 = 1.09e5; firefly reporter light, replicate 2 = 1.19e5; Renilla control light, replicate 1 = 7.76e5; Renilla control light, replicate 2 = 8.07e5; Outcome = inactive
CG8837 (GeneID 33545) [SID104207984]: firefly reporter light, replicate 1 = 3.52e5; firefly reporter light, replicate 2 = 4.04e5; Renilla control light, replicate 1 = 5.63e5; Renilla control light, replicate 2 = 5.63e5; Outcome = inactive
PIP82 (GeneID 31791) [SID104198486]: firefly reporter light, replicate 1 = 1.85e5; firefly reporter light, replicate 2 = 2.00e5; Renilla control light, replicate 1 = 1.99e6; Renilla control light, replicate 2 = 1.82e6; Outcome = inactive
PIP82 (GeneID 31791) [SID104203881]: firefly reporter light, replicate 1 = 4.86e5; firefly reporter light, replicate 2 = 3.62e5; Renilla control light, replicate 1 = 4.39e5; Renilla control light, replicate 2 = 4.64e5; Outcome = inactive
